Test results as given in PubChem BioAssay AID1487 (National Center for Advancing Translational Sciences (NCATS), 2009).
The other results are listed elsewhere or left out. Shown are side measurements of this screen, not its main read-out; they come without a call. Most of these compounds were active or inconclusive in the main read-out, so they are no random draw. Potencies come from curve fits of mixed quality, noted in brackets.

Assay: qHTS Assay for Modulators of Lamin A Splicing
Conditions: HeLa LMNA splicing GFP/RFP minigene ratio, 48 h
In short: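 S3 HeLa stable clones carrying a lamin A-EGFP splicing minigene plus DsRed2 were seeded at 600 cells/well in Opti-MEM with 2% FBS, pin-dosed and incubated 48 h at 37°C. Acumen cytometry (488 nm) gave the GFP/RFP total-intensity ratio.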

[1] = measured here: GFP splicing reporter channel
[2] = measured here: RFP viability control channel

| Compound | AC50 [1] | AC50 [2] |
| --- | --- | --- |
| Cc1nc(NC(=O)/C=C/c2ccccc2)sc1C(=O)Nc1ccc(Cl)cc1 | 22.4 µM [falling, single point] | 25.1 µM [falling, single point] |
| CCCc1ccc(C#N)c(SC2CC(=O)N(c3ccc(OC)cc3)C2=O)n1 (stereo not given) | 0.0794 µM [rising, full curve, poor fit] |  |
| Cc1cc(C(=O)CSc2ncn[nH]2)c(C)n1-c1cccc(S(=O)(=O)N2CCOCC2)c1 |  | 0.891 µM [rising, partial curve] |
| CCOC(=O)c1ccc(NC(=S)N(CCCN2CCN(C)CC2)Cc2cccs2)cc1 | 17.8 µM [falling, partial curve, poor fit] |  |
| Cc1cc(C)c(C(N)=O)c(SCC(=O)c2cc(C)c(C)cc2C)n1 |  | 10 µM [rising, partial curve] |
| Cc1ccc(CNS(=O)(=O)c2cc(C(=O)Nc3ccc(C(C)C)cc3)ccc2F)cc1 | 6.31 µM [falling, full curve] | 3.16 µM [falling, full curve, poor fit] |
| O=C(Nc1ccc(Cl)c(Cl)c1)N1CC=C(c2ccccc2)CC1 |  | 35.5 µM [falling, single point] |
| COc1ccc(N2CCN(C(=O)CNC(=O)Cn3c(C)cc4ccccc4c3=O)CC2)cc1 | 5.62 µM [rising, single point] |  |
| O=[N+]([O-])c1cccc(/C=N\N2CCN(Cc3ccccc3Cl)CC2)c1 | 14.1 µM [rising, partial curve] | 28.2 µM [rising, partial curve] |
| Cc1ccc(-c2nc(C#N)c(NCc3cccc4c3OCO4)o2)cc1 |  | 22.4 µM [rising, single point] |
| CC1Cc2cccc3c(O)c(C(=O)c4nn[nH]n4)c(=O)n1c23 (stereo not given) |  | 0.0501 µM [rising, full curve] |
| CN(C(=O)CSC1=NC2C(N=N1)c1cc(Br)ccc1N2C)C1CCCCC1 (stereo not given) | 0.0316 µM [falling, full curve, poor fit] | 0.002 µM [falling, full curve, poor fit] |
| C/C(=N\OCC(=O)N/N=C/c1ccccc1O)c1cccs1 |  | 35.5 µM [rising, single point] |
| CCN(CC)c1ccc(NC(=O)c2ccccc2F)cc1 |  | 7.94 µM [rising, partial curve, poor fit] |
| CCN(CC)c1ccc(/C=N/N2CCN(Cc3ccccc3)CC2)c(O)c1 |  | 20 µM [rising, single point] |
| COc1ccc(CCNC(=S)Nc2ccccc2C)cc1 | 20 µM [falling, single point] | 22.4 µM [falling, single point] |
| COc1ccccc1CNCC(=O)NCc1ccc(C)cc1 |  | 3.16 µM [rising, full curve, poor fit] |
| CC1CCc2nc(NC(=O)c3ccc(S(=O)(=O)N4CCCc5ccccc54)cc3)sc2C1 (stereo not given) |  | 3.16 µM [rising, single point] |
| COc1cc2c(cc1OC)C(CSc1ccccc1C(=O)O)=NC(C)(C)C2 |  | 0.891 µM [falling, full curve, poor fit] |
| COc1cc2cc(CN(C(=O)NC3CCCCC3)C3CCCC3)c(=O)[nH]c2cc1OC | 11.2 µM [rising, single point] |  |

| Compound | AC50 [1] | AC50 [2] |
| --- | --- | --- |
| CC(OC(=O)c1cc(=O)[nH]c2ccccc12)C(=O)c1ccccc1 (stereo not given) | 0.316 µM [rising, full curve] | 0.708 µM [rising, full curve] |
| Nc1nc(SCc2ccc(Cl)cc2)[nH]c(=O)c1-c1ccccc1 |  | 35.5 µM [rising, single point] |
| Cc1ccc(Nc2nc(N)nc(CSC(=S)N3CCN(c4ccccc4)CC3)n2)cc1 |  | 12.6 µM [rising, partial curve] |
| O=C(c1ccco1)N1CCN(S(=O)(=O)c2ccc(Oc3ccccc3)cc2)CC1 |  | 15.8 µM [rising, single point] |
| CCN(Cc1ccncc1)Cc1cn(C)nc1-c1ccc(Oc2ccccc2)cc1 | 35.5 µM [falling, partial curve, poor fit] | 35.5 µM [falling, partial curve, poor fit] |
| CSc1nnc2c(n1)[nH]c1c(C)cccc12 |  | 25.1 µM [rising, single point] |
| O=C(Nc1cccc(Cl)c1)Nc1cc(S(=O)(=O)N2CCCCC2)ccc1Cl |  | 25.1 µM [rising, single point] |
| COCc1nc2ccccc2n1Cc1ccc(Br)cc1 |  | 35.5 µM [rising, single point] |
| Cc1ccccc1C(=O)Nc1sc(C)c(C)c1C(=O)c1ccccc1 | 25.1 µM [falling, single point] |  |
| COC(=O)c1[nH]c2cc(C)ccc2c1NC(=O)CN1CCN(c2ccccc2OC)CC1 |  | 7.08 µM [rising, full curve, poor fit] |
| O=S(=O)(c1cccc(NC(=S)N2CCN(c3cccc(Cl)c3)CC2)c1)C(F)F |  | 11.2 µM [rising, partial curve] |
| CC(C)CCCCCCNC(=S)Nc1ccc(S(=O)(=O)N2CCOCC2)cc1 |  | 31.6 µM [rising, single point] |
| COc1ccc(Cn2c(-c3ccc(Br)cc3)c[n+]3ccccc23)cc1 |  | 7.94 µM [rising, partial curve, poor fit] |
| CC1CCCCN1CCn1cnc2c([nH]c3ccccc32)c1=O (stereo not given) |  | 22.4 µM [rising, single point] |
| Cc1cnc(C(=O)NCCc2ccc(S(=O)(=O)NC(=O)NC3CCCCC3)cc2)cn1 |  | 0.0891 µM [rising, full curve, poor fit] |
| O=C(Nc1ccc(Cl)cc1)N1CCC(CO)(Cc2ccccc2)CC1 | 10 µM [falling, partial curve, poor fit] |  |
| COc1ccc(-c2cn[nH]c2-c2ccc(OCc3ccc([N+](=O)[O-])cc3)cc2O)cc1 |  | 10 µM [falling, single point] |
| CCOC(=O)C1CCCN(C(=O)c2sc3nc(-c4ccc(F)cc4)cn3c2C)C1 (stereo not given) |  | 0.01 µM [falling, full curve, poor fit] |
| c1ccc(C2=Nn3c(nnc3-c3n[nH]c4c3CCC4)SC2)cc1 |  | 7.94 µM [rising, partial curve] |
| Fc1ccc(Nc2nc(N/N=C/c3ccco3)nc(N3CCCCC3)n2)cc1 |  | 35.5 µM [rising, single point] |

| Compound | AC50 [1] | AC50 [2] |
| --- | --- | --- |
| Oc1ccc(Br)cc1/C=N/n1cnc2ccccc21 |  | 17.8 µM [rising, single point] |
| O=C(c1ccccc1)c1c[nH]c(C(=O)NCc2cccnc2)c1 | 2 µM [falling, partial curve] |  |
| CC(=O)c1cccc(NC(=O)c2sc(-n3nc(C)c(CCC(C)C)c3C)nc2C)c1 | 5.62 µM [rising, single point] |  |
| COc1ccc(NS(=O)(=O)c2ccc3c(c2)Cc2ccccc2-3)cn1 | 2 µM [rising, full curve] |  |
| Cc1noc(C)c1CSCC(=O)N1CCN(c2ccc([N+](=O)[O-])cc2)CC1 | 12.6 µM [rising, single point] | 15.8 µM [rising, partial curve] |
| COc1ccc(N2CC(NC(=O)Cc3cccs3)CC2=O)cc1 (stereo not given) | 1.26 µM [falling, partial curve, poor fit] | 0.00501 µM [falling, full curve, poor fit] |
| CCCCNc1ncnc2c1cnn2-c1ccccc1 |  | 35.5 µM [rising, single point] |
| Cc1nc2ncccn2c1-c1csc(Nc2ccc(N(C)C)cc2)n1 | 0.00501 µM [falling, full curve, poor fit] |  |
| COc1ccc(Cl)cc1NC(=O)CSc1nc2c([nH]c3ccccc32)c(=O)n1-c1ccccc1 | 31.6 µM [falling, partial curve, poor fit] | 11.2 µM [falling, partial curve] |
| Cc1cccc(-c2nnc(NC(=O)c3ccc(Cl)cc3)o2)c1 |  | 1.78 µM [rising, partial curve, poor fit] |
| O=C(CSc1nnc(-c2ccccc2Br)o1)N1CCN(C(=O)c2ccco2)CC1 | 4.47 µM [rising, partial curve, poor fit] |  |
| Cc1ccc(S(=O)(=O)N2CCN(c3ccc(C(=O)N4CCOCC4)cc3[N+](=O)[O-])CC2)cc1 | 12.6 µM [rising, partial curve] | 35.5 µM [rising, single point] |
| CCC(=O)N1CCN(c2ccccc2NC(=S)NC(=O)c2cccc([N+](=O)[O-])c2)CC1 | 1 µM [falling, full curve, poor fit] |  |
| CCC1=NN(C(=O)c2cccc(Br)c2)C(O)(c2ccc(Br)cc2)C1 (stereo not given) |  | 25.1 µM [rising, single point] |
| Cc1nn(C(C)C(=O)NCc2ccco2)c(C)c1[N+](=O)[O-] (stereo not given) | 0.562 µM [rising, single point] |  |
| COc1ccc(CN2CCNC(=O)C2CC(=O)NCCSc2nccn2C)c(OC)c1 (stereo not given) |  | 0.2 µM [falling, full curve] |
| C/C(=N\NC(=S)NC1CCCCC1)c1ccccc1 |  | 6.31 µM [rising, full curve] |
| O=C(NCc1ccc(F)cc1)c1cnc(N2CCOCC2)c2ccccc12 | 0.282 µM [rising, partial curve] |  |
| COc1ccc(Cn2cc(C(=O)c3ccccc3)c(=O)c3cc(OC)ccc32)cc1 |  | 1.58 µM [rising, partial curve, poor fit] |

Some of these compounds in order of molecular weight, smallest number first.

| Compound | AC50 [1] | AC50 [2] |
| --- | --- | --- |
| C/C(=N\NC(=S)NC1CCCCC1)c1ccccc1 |  | 6.31 µM [rising, full curve] |
| Cc1noc(C)c1CSCC(=O)N1CCN(c2ccc([N+](=O)[O-])cc2)CC1 | 12.6 µM [rising, single point] | 15.8 µM [rising, partial curve] |
| CCC(=O)N1CCN(c2ccccc2NC(=S)NC(=O)c2cccc([N+](=O)[O-])c2)CC1 | 1 µM [falling, full curve, poor fit] |  |
